Source: the supplement of paper PMC10849652
The other results are listed elsewhere or left out.

Sequences of proteins named here, by UniProt entry; tags and fusion partners are left off. A change or cut given only in a name is not applied to a line headed by its entry.
UniProt Q86YS3: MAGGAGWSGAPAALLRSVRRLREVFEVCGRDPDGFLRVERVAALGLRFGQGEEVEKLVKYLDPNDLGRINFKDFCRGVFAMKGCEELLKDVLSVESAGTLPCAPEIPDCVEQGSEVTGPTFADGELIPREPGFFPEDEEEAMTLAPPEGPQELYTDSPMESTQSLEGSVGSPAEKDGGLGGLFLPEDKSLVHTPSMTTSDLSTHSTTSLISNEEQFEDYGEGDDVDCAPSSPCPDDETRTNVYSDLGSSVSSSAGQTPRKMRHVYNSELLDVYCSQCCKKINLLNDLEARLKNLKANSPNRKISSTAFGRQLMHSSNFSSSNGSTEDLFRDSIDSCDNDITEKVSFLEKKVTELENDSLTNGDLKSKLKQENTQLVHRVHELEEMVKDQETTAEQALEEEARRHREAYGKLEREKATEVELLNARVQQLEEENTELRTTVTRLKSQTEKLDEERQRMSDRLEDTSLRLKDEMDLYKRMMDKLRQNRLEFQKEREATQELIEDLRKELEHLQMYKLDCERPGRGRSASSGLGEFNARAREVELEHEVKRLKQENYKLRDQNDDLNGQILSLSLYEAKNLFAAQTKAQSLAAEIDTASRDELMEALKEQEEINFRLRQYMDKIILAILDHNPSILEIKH
UniProt Q53S08: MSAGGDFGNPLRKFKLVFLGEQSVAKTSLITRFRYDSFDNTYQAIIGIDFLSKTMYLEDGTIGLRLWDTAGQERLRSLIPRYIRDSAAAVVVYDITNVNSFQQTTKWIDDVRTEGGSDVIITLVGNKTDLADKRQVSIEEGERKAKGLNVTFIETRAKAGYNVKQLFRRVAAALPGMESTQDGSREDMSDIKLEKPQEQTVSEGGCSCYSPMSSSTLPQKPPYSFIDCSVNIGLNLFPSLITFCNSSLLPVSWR
UniProt Q6GYQ0: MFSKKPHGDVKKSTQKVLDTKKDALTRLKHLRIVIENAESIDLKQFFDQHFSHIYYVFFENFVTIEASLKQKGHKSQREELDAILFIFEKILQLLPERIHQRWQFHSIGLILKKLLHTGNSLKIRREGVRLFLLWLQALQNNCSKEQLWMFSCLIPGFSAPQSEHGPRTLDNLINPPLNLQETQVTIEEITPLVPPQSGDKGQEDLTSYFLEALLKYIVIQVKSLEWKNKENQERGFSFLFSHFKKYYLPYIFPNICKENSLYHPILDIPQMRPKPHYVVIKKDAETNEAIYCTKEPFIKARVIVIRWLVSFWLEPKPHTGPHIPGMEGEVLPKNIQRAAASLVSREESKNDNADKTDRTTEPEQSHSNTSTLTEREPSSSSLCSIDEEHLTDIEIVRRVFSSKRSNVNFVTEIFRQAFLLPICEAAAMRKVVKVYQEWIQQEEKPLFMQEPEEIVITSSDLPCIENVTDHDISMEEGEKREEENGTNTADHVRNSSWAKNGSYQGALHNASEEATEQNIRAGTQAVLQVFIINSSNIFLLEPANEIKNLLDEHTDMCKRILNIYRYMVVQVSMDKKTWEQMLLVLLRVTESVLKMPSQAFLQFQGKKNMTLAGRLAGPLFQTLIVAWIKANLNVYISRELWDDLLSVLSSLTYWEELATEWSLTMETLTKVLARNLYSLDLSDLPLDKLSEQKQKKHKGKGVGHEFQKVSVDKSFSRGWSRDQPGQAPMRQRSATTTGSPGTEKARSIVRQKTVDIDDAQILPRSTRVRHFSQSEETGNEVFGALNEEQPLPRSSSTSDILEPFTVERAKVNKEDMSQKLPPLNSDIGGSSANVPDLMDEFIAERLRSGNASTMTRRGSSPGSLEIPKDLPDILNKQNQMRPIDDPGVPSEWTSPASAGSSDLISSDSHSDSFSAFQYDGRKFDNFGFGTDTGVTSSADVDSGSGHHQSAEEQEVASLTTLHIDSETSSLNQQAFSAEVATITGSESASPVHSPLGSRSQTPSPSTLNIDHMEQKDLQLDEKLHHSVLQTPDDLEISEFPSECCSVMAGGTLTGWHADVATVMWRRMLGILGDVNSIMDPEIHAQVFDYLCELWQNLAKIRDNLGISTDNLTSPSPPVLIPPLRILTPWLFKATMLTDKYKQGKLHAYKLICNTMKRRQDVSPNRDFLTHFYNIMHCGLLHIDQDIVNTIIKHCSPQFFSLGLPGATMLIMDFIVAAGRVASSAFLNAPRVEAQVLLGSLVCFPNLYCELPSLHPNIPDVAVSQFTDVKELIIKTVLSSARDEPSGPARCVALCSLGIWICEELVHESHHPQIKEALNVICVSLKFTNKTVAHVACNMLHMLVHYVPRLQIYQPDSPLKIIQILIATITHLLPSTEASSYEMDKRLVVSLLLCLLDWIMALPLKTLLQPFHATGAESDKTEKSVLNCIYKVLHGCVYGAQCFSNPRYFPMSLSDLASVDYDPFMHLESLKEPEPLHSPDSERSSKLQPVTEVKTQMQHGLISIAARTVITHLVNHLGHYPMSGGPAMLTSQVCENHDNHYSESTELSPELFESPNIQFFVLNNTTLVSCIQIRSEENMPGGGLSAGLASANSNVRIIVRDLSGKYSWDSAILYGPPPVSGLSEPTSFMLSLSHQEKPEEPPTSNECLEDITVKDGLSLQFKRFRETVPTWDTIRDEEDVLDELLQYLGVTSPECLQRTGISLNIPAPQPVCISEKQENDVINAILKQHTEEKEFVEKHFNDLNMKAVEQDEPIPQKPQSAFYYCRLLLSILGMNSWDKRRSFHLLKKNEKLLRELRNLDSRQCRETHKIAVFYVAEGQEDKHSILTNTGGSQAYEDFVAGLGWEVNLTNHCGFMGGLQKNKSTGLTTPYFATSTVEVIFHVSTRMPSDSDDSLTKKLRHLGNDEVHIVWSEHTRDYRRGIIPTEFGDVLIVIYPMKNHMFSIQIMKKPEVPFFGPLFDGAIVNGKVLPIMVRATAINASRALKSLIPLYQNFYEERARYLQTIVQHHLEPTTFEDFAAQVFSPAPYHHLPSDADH
UniProt Q2TAL8: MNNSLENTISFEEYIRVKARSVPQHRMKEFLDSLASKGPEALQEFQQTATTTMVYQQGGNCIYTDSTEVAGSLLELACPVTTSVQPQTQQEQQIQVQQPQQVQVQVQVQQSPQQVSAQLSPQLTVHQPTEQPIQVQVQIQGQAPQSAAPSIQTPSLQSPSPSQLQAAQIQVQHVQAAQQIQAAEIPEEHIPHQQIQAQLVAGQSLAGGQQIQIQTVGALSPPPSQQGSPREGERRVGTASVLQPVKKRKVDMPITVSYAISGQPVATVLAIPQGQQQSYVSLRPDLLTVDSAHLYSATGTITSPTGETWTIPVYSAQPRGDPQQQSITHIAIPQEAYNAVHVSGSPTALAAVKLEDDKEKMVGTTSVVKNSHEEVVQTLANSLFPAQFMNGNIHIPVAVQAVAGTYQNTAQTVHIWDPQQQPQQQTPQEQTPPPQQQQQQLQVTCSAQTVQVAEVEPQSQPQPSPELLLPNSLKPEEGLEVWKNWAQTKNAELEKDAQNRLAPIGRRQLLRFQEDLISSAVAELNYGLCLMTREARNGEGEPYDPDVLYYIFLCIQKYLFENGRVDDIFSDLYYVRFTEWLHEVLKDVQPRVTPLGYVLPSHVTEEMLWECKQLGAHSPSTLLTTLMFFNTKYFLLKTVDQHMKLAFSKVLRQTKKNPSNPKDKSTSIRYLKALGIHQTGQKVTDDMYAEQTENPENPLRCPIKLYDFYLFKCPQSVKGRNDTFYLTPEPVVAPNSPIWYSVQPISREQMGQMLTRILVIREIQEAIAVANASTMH
UniProt P62491: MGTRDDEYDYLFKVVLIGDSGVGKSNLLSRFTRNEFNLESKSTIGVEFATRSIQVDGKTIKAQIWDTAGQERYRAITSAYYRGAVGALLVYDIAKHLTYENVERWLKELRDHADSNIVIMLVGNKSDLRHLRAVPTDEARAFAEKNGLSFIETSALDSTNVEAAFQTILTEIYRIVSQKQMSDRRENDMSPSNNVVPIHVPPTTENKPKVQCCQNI
UniProt P61019: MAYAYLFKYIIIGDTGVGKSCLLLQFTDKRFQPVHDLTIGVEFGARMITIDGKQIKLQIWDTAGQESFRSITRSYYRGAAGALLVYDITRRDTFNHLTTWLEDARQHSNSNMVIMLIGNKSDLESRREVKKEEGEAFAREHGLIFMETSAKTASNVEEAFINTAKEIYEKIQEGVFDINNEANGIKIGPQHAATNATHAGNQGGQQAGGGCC
UniProt P61020: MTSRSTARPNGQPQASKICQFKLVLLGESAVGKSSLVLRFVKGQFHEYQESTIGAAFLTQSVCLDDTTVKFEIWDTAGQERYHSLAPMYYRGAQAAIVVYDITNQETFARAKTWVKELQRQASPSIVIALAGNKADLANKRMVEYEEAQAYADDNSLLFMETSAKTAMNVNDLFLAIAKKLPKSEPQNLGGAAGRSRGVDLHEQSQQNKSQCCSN
UniProt O75943: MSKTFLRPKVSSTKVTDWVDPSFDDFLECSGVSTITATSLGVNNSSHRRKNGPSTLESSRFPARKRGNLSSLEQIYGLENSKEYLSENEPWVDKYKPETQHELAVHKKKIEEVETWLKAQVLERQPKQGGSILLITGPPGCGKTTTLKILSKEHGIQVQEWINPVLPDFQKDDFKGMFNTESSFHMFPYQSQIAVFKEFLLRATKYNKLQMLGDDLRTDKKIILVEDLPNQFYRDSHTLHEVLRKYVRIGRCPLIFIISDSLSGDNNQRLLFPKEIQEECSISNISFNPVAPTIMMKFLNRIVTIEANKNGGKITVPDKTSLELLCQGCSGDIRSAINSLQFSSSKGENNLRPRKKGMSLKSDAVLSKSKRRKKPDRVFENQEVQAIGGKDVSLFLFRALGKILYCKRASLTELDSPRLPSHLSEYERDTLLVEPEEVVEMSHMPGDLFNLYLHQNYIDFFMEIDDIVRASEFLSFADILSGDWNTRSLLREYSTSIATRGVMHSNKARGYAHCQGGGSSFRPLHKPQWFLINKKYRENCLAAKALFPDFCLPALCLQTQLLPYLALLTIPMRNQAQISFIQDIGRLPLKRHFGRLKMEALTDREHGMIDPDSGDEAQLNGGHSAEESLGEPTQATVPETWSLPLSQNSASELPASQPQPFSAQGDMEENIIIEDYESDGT
UniProt Q15042: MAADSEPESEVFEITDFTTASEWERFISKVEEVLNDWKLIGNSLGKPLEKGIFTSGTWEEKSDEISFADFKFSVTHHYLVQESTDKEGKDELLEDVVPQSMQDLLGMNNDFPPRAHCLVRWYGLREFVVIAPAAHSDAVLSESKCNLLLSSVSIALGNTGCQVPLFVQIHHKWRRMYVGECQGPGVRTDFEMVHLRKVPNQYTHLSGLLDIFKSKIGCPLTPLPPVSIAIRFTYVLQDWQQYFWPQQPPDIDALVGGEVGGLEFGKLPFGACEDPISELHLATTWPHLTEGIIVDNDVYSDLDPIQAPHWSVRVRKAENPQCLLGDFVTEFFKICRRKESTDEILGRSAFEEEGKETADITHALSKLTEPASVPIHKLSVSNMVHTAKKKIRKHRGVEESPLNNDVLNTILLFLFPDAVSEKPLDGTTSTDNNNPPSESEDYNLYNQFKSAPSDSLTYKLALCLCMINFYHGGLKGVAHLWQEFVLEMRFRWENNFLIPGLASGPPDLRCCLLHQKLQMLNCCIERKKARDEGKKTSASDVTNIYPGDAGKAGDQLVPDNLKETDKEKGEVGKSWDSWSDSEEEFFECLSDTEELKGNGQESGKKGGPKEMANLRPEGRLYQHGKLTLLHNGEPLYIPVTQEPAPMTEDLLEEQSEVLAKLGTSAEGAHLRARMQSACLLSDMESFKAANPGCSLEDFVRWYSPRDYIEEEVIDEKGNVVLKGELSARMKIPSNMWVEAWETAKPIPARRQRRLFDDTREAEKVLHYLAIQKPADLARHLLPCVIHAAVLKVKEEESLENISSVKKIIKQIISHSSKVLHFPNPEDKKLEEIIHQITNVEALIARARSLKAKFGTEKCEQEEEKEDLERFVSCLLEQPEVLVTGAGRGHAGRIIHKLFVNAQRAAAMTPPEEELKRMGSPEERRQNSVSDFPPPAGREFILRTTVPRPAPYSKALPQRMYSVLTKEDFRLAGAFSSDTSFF
UniProt Q9Y3L5: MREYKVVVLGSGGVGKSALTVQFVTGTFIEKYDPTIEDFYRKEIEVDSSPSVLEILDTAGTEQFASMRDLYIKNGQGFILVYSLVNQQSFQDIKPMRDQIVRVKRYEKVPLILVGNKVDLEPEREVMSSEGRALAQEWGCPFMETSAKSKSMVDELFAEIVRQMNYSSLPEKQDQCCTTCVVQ
UniProt Q15771: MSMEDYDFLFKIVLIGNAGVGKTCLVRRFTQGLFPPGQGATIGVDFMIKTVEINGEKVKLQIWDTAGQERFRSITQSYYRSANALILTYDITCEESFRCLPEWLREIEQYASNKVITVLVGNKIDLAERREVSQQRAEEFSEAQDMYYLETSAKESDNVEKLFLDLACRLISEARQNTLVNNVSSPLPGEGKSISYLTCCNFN
UniProt Q969Q5: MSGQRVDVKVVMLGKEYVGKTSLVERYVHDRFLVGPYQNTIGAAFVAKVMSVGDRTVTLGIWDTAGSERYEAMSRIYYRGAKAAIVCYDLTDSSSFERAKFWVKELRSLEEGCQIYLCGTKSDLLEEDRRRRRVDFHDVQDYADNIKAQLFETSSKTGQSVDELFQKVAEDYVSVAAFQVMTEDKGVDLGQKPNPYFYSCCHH

Columns and labels:
Experiment in all cases: log2 fold change, soluble protein after heating vs DMSO (PISA); higher = thermal stabilisation; K562 lysate, 10 uM; active = over 0.2 and 3.5 SD of the protein, either way, in both replicates (recomputed)
[1] = compound: C1=CC=C(C=C1)[C@H](COC2=CC3=C(C=C2)NC(=O)N3)NC(=O)C4=CC=CN(C4=O)CC5=CC(=C(C=C5)F)F
Outline: (§1)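 Quantification was by TMTpro 16plex LC-MS/MS with equalised channel sums, applied to the supernatant after 21,000xg for 90 min. Samples were crude K562 extract at 1 mg/mL protein in PBS pH 7.4 with 1 mM MgCl2, treated with 10 μM compound for 30 min, heated for 3 min across 48°C-58°C, pooled and brought to 0.5% NP-40 at 4°C. Values are log-two fold changes in thermal stability relative to solvent controls, from duplicates.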

[2] = compound: CC1=C(SC2=C1C(=N[C@H](C3=NN=C(N32)C)CC(=O)N)C4=CC=C(C=C4)Cl)C
Outline: as §1

[3] = compound: CC1=C2C(=CC=C1)N=C(N(C2=O)C3=CC=CC=C3C)CN4C=NC5=C(N=CN=C54)N
Outline: as §1

[4] = compound: Cc1sc2c(c1C)C(c1ccc(Cl)cc1)=N[C@@H](CC(=O)OC(C)(C)C)c1nnc(C)n1-2
Outline: as §1

[5] = compound: c1ccc([C@@H]2C[C@H]2NC2CCNCC2)cc1
Outline: as §1

Measured: log2 fold change

RAB2B (UniProt Q8WUD1)
inactive: [1] -0.016 | [2] -0.035 | [3] 0.023 | [4] 0.034 | [5] -0.013

R3HCC1L, A0A384DVK4
inactive: [1] 0.013 | [2] 0.014 | [3] -0.039 | [4] -0.023 | [5] -0.054

RAD51D (UniProt O75771)
inactive: [1] -0.057 | [2] 0.213 | [3] 0.056 | [4] -0.005 | [5] -0.045

RAC1 isoform 2 (UniProt P63000)
inactive: [1] 0.078 | [2] -0.05 | [3] -0.037 | [4] 0.082 | [5] 0.15

RAB31 (UniProt Q13636)
inactive: [1] -0.019 | [2] -0.041 | [3] 0.01 | [4] 0.033 | [5] -0.05

RAB11FIP4 (UniProt Q86YS3)
inactive: [1] 0.004 | [2] 0.099 | [3] -0.011 | [4] -0.063

RAB6D (UniProt Q53S08)
inactive: [1] -0.045 | [2] 0.01 | [3] 0.034 | [4] -0.003 | [5] -0.045

RAB5C isoform 2 (UniProt P51148)
inactive: [1] -0.005 | [2] 0.046 | [3] 0.033 | [4] -0.021 | [5] 0.001

R3HDM1 isoform 3 (UniProt Q15032)
inactive: [1] 0.036 | [2] 0.035 | [3] 0.079 | [4] -0.029 | [5] 0.171

RALGAPA1 isoform 6 (UniProt Q6GYQ0)
inactive: [1] -0.041 | [2] -0.072 | [3] 0.006 | [4] -0.063 | [5] -0.178

QRICH1 (UniProt Q2TAL8)
inactive: [1] -0.019 | [2] -0.007 | [3] -0.004 | [4] 0.047 | [5] 0.03

RAB35 (UniProt Q15286)
inactive: [1] 0.031 | [2] -0.036 | [3] 0.039 | [4] -0.039 | [5] 0.004

RAB32 (UniProt Q13637)
inactive: [1] -0.039 | [2] 0.049 | [3] -0.003 | [4] -0.077 | [5] -0.021

RAB20 (UniProt Q9NX57)
inactive: [1] 0.008 | [2] -0.235 | [3] 0.07 | [4] -0.097

RAP2A (UniProt P10114)
inactive: [1] -0.014 | [2] 0.008 | [3] -0.037 | [4] 0.002 | [5] 0.064

RANGAP1 (UniProt P46060)
inactive: [1] -0.013 | [2] 0.004 | [3] -0.009 | [4] 0.019 | [5] 0.006

RAB11A (UniProt P62491)
inactive: [1] -0.003 | [2] -0.067 | [3] -0.006 | [4] -0.001 | [5] 0.119

RAB2A (UniProt P61019)
inactive: [1] -0.046 | [2] 0.013 | [3] 0.003 | [4] 0.023 | [5] 0.016

QSOX2 (UniProt Q6ZRP7)
inactive: [1] 0.008 | [2] -0.008 | [3] 0.001 | [4] -0.066 | [5] -0.062

PYCR2 (UniProt Q96C36)
inactive: [1] 0.007 | [2] 0.036 | [3] 0.013 | [4] 0.004 | [5] -0.054

RAPGEF1 isoform 3 (UniProt Q13905)
inactive: [1] 0.024 | [2] 0.074 | [3] 0.07 | [4] -0.119 | [5] -0.01

RAB14 (UniProt P61106)
inactive: [1] -0.055 | [2] -0.007 | [3] 0.013 | [4] 0.046 | [5] -0.037

RABGAP1L isoform 5 (UniProt Q5R372)
inactive: [1] 0.015 | [2] -0.022 | [3] -0.127 | [4] -0.06 | [5] -0.007

R3HCC1 (UniProt Q9Y3T6)
inactive: [1] 0.014 | [2] 0.015 | [3] 0.006 | [4] -0.014 | [5] -0.047

RAB5B (UniProt P61020)
inactive: [1] 0.007 | [2] 0.057 | [3] -0.006 | [4] 0.042 | [5] 0.039

RAD51 (UniProt Q06609)
inactive: [1] -0.039 | [2] 0.058 | [3] -0.032 | [4] 0.022 | [5] -0.042

RAB3IL1 (UniProt E9PK89)
inactive: [1] -0.109 | [2] 0.057 | [3] 0.014 | [4] -0.189 | [5] -0.006

RAB11B (UniProt Q15907)
inactive: [1] -0.029 | [2] 0.01 | [3] 0.013 | [4] -0.002 | [5] -0.014

RAP1B (UniProt F5GZG1)
inactive: [1] -0.082 | [2] -0.124 | [3] 0.023 | [4] -0.019 | [5] -0.282

RABGAP1L isoform 3 (UniProt Q5R372)
inactive: [1] -0.003 | [2] 0.067 | [3] 0.017 | [4] -0.019 | [5] -0.01

QPCTL (UniProt Q9NXS2)
inactive: [1] 0.074 | [2] 0.003 | [3] 0.047 | [4] 0.035 | [5] 0.046

RABGEF1 isoform 3 (UniProt Q9UJ41)
inactive: [1] 0.01 | [2] 0 | [3] 0.005 | [4] -0.035 | [5] -0.002

RAD17 (UniProt O75943)
inactive: [1] -0.031 | [2] -0.077 | [3] 0.047 | [4] -0.066 | [5] 0.002

RAB3GAP1 (UniProt Q15042)
inactive: [1] 0.021 | [2] -0.014 | [3] -0.011 | [4] 0.036 | [5] 0.026

QRSL1 (UniProt Q9H0R6)
inactive: [1] -0.005 | [2] -0.056 | [3] -0.101 | [4] 0.041 | [5] 0.094

RAP2C (UniProt Q9Y3L5)
inactive: [1] -0.081 | [2] 0.111 | [3] 0.011 | [4] -0.119 | [5] -0.009

RAD51B (UniProt O15315)
inactive: [1] 0.072 | [2] -0.042 | [3] 0 | [4] 0.158 | [5] -0.116

RAB10 (UniProt P61026)
inactive: [1] -0.016 | [2] 0.025 | [3] 0.027 | [4] 0.041 | [5] 0.036

RAD23A (UniProt P54725)
inactive: [1] -0.05 | [2] -0.067 | [3] -0.02 | [4] 0.003 | [5] -0.008

RAB30 (UniProt Q15771)
inactive: [1] -0.041 | [2] -0.048 | [3] 0.067 | [4] -0.008 | [5] -0.021

PXK (UniProt Q7Z7A4)
inactive: [1] -0.059 | [2] -0.03 | [3] 0.018 | [4] 0.008 | [5] -0.054

RAP1B (UniProt P61224)
inactive: [1] 0.006 | [2] -0.023 | [3] 0.032 | [4] 0.055 | [5] 0.02

PYGB (UniProt P11216)
inactive: [1] -0.013 | [2] -0.013 | [3] 0.002 | [4] -0.029 | [5] 0.037

RAE1 (UniProt P78406)
inactive: [1] -0.022 | [2] -0.081 | [3] -0.005 | [4] 0.07 | [5] -0.022

RAB21 (UniProt Q9UL25)
inactive: [1] -0.086 | [2] 0.036 | [3] 0.019 | [4] 0.055 | [5] 0.127

RAB3IP (UniProt Q96QF0)
inactive: [1] 0.059 | [2] 0.003 | [3] 0.139 | [4] 0.015 | [5] -0.028

RAB8B (UniProt Q92930)
inactive: [1] -0.067 | [2] 0.013 | [3] -0.041 | [4] -0.012 | [5] 0.146

RAF1 isoform 2 (UniProt P04049)
inactive: [1] 0.024 | [2] 0.035 | [3] -0.104 | [4] -0.017 | [5] 0.013

RAPGEF2, A0A2R8YGD3
inactive: [1] -0.043 | [2] 0.021 | [3] -0.046 | [4] -0.003
active: [5] -0.32

RANBP9 (UniProt Q96S59)
inactive: [1] 0.021 | [2] 0.013 | [3] 0.027 | [4] -0.024 | [5] -0.021

RACGAP1 (UniProt Q9H0H5)
inactive: [1] 0.051 | [2] -0.017 | [3] 0.066 | [4] 0.003 | [5] -0.015

15 neighbouring entries out of the list so far:
QRSL1 (UniProt Q9H0R6)
inactive: [1] -0.005 | [2] -0.056 | [3] -0.101 | [4] 0.041 | [5] 0.094

RAP2C (UniProt Q9Y3L5)
inactive: [1] -0.081 | [2] 0.111 | [3] 0.011 | [4] -0.119 | [5] -0.009

RAD51B (UniProt O15315)
inactive: [1] 0.072 | [2] -0.042 | [3] 0 | [4] 0.158 | [5] -0.116

RAB10 (UniProt P61026)
inactive: [1] -0.016 | [2] 0.025 | [3] 0.027 | [4] 0.041 | [5] 0.036

RAD23A (UniProt P54725)
inactive: [1] -0.05 | [2] -0.067 | [3] -0.02 | [4] 0.003 | [5] -0.008

RAB30 (UniProt Q15771)
inactive: [1] -0.041 | [2] -0.048 | [3] 0.067 | [4] -0.008 | [5] -0.021

PXK (UniProt Q7Z7A4)
inactive: [1] -0.059 | [2] -0.03 | [3] 0.018 | [4] 0.008 | [5] -0.054

RAP1B (UniProt P61224)
inactive: [1] 0.006 | [2] -0.023 | [3] 0.032 | [4] 0.055 | [5] 0.02

PYGB (UniProt P11216)
inactive: [1] -0.013 | [2] -0.013 | [3] 0.002 | [4] -0.029 | [5] 0.037

RAE1 (UniProt P78406)
inactive: [1] -0.022 | [2] -0.081 | [3] -0.005 | [4] 0.07 | [5] -0.022

RAB21 (UniProt Q9UL25)
inactive: [1] -0.086 | [2] 0.036 | [3] 0.019 | [4] 0.055 | [5] 0.127

RAB3IP (UniProt Q96QF0)
inactive: [1] 0.059 | [2] 0.003 | [3] 0.139 | [4] 0.015 | [5] -0.028

RAB8B (UniProt Q92930)
inactive: [1] -0.067 | [2] 0.013 | [3] -0.041 | [4] -0.012 | [5] 0.146

RAF1 isoform 2 (UniProt P04049)
inactive: [1] 0.024 | [2] 0.035 | [3] -0.104 | [4] -0.017 | [5] 0.013

RAPGEF2, A0A2R8YGD3
inactive: [1] -0.043 | [2] 0.021 | [3] -0.046 | [4] -0.003
active: [5] -0.32

(further entries)

RAB24 (UniProt Q969Q5)
inactive: [1] 0.01 | [2] 0 | [3] 0.048 | [4] -0.011 | [5] 0.041

RABGGTA (UniProt Q92696)
inactive: [1] 0.007 | [2] 0.011 | [3] 0.02 | [4] -0.018 | [5] -0.002
